Results published in PubChem BioAssay AID2685 (National Center for Advancing Translational Sciences (NCATS), 2010).
This is one part of the list. The main result of the screen is listed elsewhere. These columns were measured beside it and carry no call. The list favours compounds with an active or inconclusive main result. The note in brackets gives the kind of curve behind each potency; many fits are weak.

Assay: qHTS Assay for Lipid Storage Modulators in Drosophila S3 Cells;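 for cell number change: cells counted by Cell Tracker Red CMTPX staining in the red channel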
Conditions: BODIPY lipid droplet fluorescence, 18-24 h; for cell number change: measured here: cell count max response, cells fed with added oleic acid
Outline: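 Drosophila S3 cells got compounds at several concentrations plus oleic acid (400 uM solution). Laser-scanning cytometry with 488 nm excitation read lipid droplets at 500-530 nm and cells at 575-640 nm. Percent activity was relative to 20 uM Triacsin C.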

[1] = measured here: cell number channel AC50, cells fed with added oleic acid
[2] = measured here: lipid fluorescence (Fed channel) AC50, cells fed with added oleic acid

| SMILES | cell number change | AC50 [1] | AC50 [2] |
| --- | --- | --- | --- |
| COc1ccc(-n2c(=O)[nH]cc(C(=O)N3CCCc4ccccc43)c2=O)cc1 | -1.92% | 6.51 µM [falling, single point] | – |
| CCc1cccc2c(C(=O)CN3C(=O)NC4(CCc5ccccc54)C3=O)c[nH]c12 (stereo not drawn) | -50.3% | 11.6 µM [falling, partial curve] | 5.8 µM [falling, single point] |
| CC/C(=C/c1ccccc1)c1cccc2[nH]c3c(OC)cccc3c12 | 15.9% | – | 29.1 µM [rising, single point] |
| COC(=O)CN1C(=O)[C@H]2[C@@H](c3ccc(C)o3)N3C(=O)CN(Cc4ccccn4)C(=O)[C@@]3(C)[C@H]2C1=O | 3.29% | – | 29.1 µM [falling, single point] |
| COc1ccc(NC(=O)C2CCC(CNc3c(N4CCOCC4)c(=O)c3=O)CC2)cc1Cl (stereo not drawn) | -3.94% | 0.0259 µM [falling, full curve, poor fit] | – |
| c1ccc(CN2CCC3(CC2)Nc2ccccc2CO3)cc1 | -87.7% | 29.1 µM [falling, single point] | 2.59 µM [falling, partial curve] |
| Cc1ccc(S(=O)(=O)NNC(=O)Nc2cccc3ccccc23)cc1 | – | – | 6.51 µM [rising, single point] |
| CCCOc1ccc(NC(=O)CNC(=O)c2cc(OC)cc(OC)c2)cc1OCCC | 3.28% | – | 8.2 µM [rising, partial curve] |
| CC[n+]1c(C=C2C=C(C)OC(C)=C2)sc2ccccc21 | -68% | 1.84 µM [falling, partial curve] | 3.66 µM [falling, full curve] |
| C=CCN(c1ccccc1)S(=O)(=O)c1cc2c(cc1C)NC(=O)CO2 | 5.48% | – | 0.0651 µM [rising, full curve, poor fit] |
| N#Cc1ccc(CSc2nnc(COc3ccccc3)n2-c2ccccc2)cc1 | – | – | 0.146 µM [rising, full curve, poor fit] |
| O=C(CSc1nnc(NC(=O)c2ccccc2F)s1)NCc1ccc(F)cc1 | -22.8% | – | 29.1 µM [rising, single point] |
| COc1c(C)cc(S(=O)(=O)NCCN2CCOCC2)c(C)c1C | 8.14% | – | 29.1 µM [rising, single point] |
| CCCC(=O)NNC(=O)c1ccoc1C | -16.1% | – | 0.184 µM [falling, full curve, poor fit] |
| Cc1nn(Cc2ccccc2)c(Cl)c1C(=O)NCCc1ccc(Cl)cc1 | 5.63% | – | 1.03 µM [rising, full curve, poor fit] |
| O=C(Cn1nc(Cc2cccnc2)c2ccccc2c1=O)NCC1COc2ccccc2O1 (stereo not drawn) | -8.78% | – | 6.51 µM [rising, partial curve] |
| CN(C)C(=S)Nc1nc2ccccc2s1 | -18.3% | 0.00651 µM [falling, full curve, poor fit] | – |
| O=C(/C=C\Nc1ccc(Br)cc1)c1cccnc1 | 13% | – | – |
| CCC(C)(C)NC(=O)C(c1ccc(C)o1)N(Cc1cccs1)C(=O)Cn1nnc2ccccc21 (stereo not drawn) | -26.9% | – | 0.103 µM [rising, full curve, poor fit] |

| SMILES | cell number change | AC50 [1] | AC50 [2] |
| --- | --- | --- | --- |
| CCOC(=O)/C=C/C(=O)OCc1csc(CC(=O)Nc2ccccc2C)n1 | – | – | 5.17 µM [falling, single point] |
| C=CCNc1nc2c(c(=O)n(C)c(=O)n2C)n1CCCCCC | -121% | 29.1 µM [falling, single point] | 29.1 µM [falling, single point] |
| COc1cc(Cl)ccc1OCc1cc(C(=O)N2C[C@H]3CC[C@H]2C3)no1 | -1.74% | – | 0.0731 µM [rising, full curve, poor fit] |
| O=C(NCc1cccnc1)c1c[nH]c2cc3c(cc2c1=O)OCCO3 | -60% | 11.6 µM [falling, partial curve, poor fit] | 32.6 µM [falling, single point] |
| COc1ccc(C2Nc3ccccc3C(=O)N2Cc2ccco2)cc1COc1ccc([N+](=O)[O-])cc1 (stereo not drawn) | 3.35% | 0.731 µM [falling, partial curve, poor fit] | – |
| CCOc1ccc2nc(NC(=O)C3CCN(S(=O)(=O)c4cnc[nH]4)CC3)sc2c1 | 10.4% | – | 0.103 µM [rising, full curve, poor fit] |
| O=C(CSc1nc2ccccc2c(=O)[nH]1)Nc1ccc(C(=O)O)cc1 | -59.7% | 1.64 µM [falling, partial curve] | 1.46 µM [falling, partial curve] |
| CCOC(=O)CSc1nc2ccccc2n1CC(=O)N1CCN(c2ccccc2)CC1 | -13.5% | – | 0.651 µM [falling, partial curve, poor fit] |
| Cc1ccc(C(=O)N2N=C(CC(C)C)CC2(O)C(F)(F)F)o1 (stereo not drawn) | 38.9% | – | – |
| CCOC(=O)N1CCN(S(=O)(=O)N2CCCC(C(=O)NCc3ccc(OC)cc3OC)C2)CC1 (stereo not drawn) | -13.2% | – | – |
| Cc1nn(CC(O)Cn2cnc3c2c(=O)n(C)c(=O)n3C)c(C)c1Br (stereo not drawn) | -6.68% | – | 1.03 µM [falling, full curve, poor fit] |
| CC(C)(C)C1C/C(=C/c2ccco2)C(=O)/C(=C/c2ccco2)C1 (stereo not drawn) | – | – | 11.6 µM [falling, partial curve] |
| COc1ccc(NC(=O)CCCn2c(=O)c3sccc3n(Cc3ccccc3C)c2=O)cc1 | 24.5% | – | – |
| CCNC(=S)N1CCC(n2cnc3ccccc32)CC1 | -29.9% | – | – |
| CN(C)S(=O)(=O)c1cc(NC(=O)CN2CCOCC2)ccc1Cl | 1.94% | 2.06 µM [falling, partial curve] | – |
| O=C(CN1CCN(S(=O)(=O)c2ccc(Cl)c(Cl)c2)CC1)N1CCCC1 | -14.9% | 0.461 µM [falling, full curve, poor fit] | 0.13 µM [falling, full curve, poor fit] |
| Oc1ccc(Cl)cc1CNCc1ccc(F)c(F)c1 | 2.05% | – | 0.00517 µM [rising, full curve, poor fit] |
| O=C(N/N=C/c1ccco1)c1cc(-c2ccc3ccccc3c2)n[nH]1 | -92.7% | 18.4 µM [falling, single point] | 6.51 µM [rising, single point] |
| COc1cc(CCC(=O)OCC(=O)Nc2ccc3c(c2)OCO3)cc(OC)c1OC | – | – | 29.1 µM [rising, partial curve, poor fit] |

| SMILES | cell number change | AC50 [1] | AC50 [2] |
| --- | --- | --- | --- |
| Clc1ccsc1-c1ccc2ccccc2n1 | -27.7% | – | – |
| Cc1ccc(N2CC(C(=O)OCC(=O)C(C)(C)C)CC2=O)cc1C (stereo not drawn) | -0.597% | – | 3.26 µM [falling, full curve] |
| Cc1[nH]c2ccccc2c1C(c1ccncc1)N1CCN(c2ccccc2F)CC1 (stereo not drawn) | 66.7% | 29.1 µM [rising, single point] | – |
| CC(=O)c1ccc(-c2ccc(C(=O)N3CCN(c4ccc(F)cc4)CC3)o2)cc1 | – | 3.66 µM [rising, partial curve] | 2.31 µM [rising, full curve] |
| O=C(Nc1ccc2nc(N3CCOCC3)sc2c1)c1ccccc1 | -3.25% | 1.03 µM [falling, full curve, poor fit] | 0.92 µM [falling, full curve] |
| CCC(C)(C)C1CCc2[nH]nc(C(=O)NC(C)C)c2C1 (stereo not drawn) | -44.9% | 18.4 µM [falling, single point] | – |
| COC(=O)CNC(=O)CCC(=O)N1CCN(C(c2ccccc2)c2ccccc2)CC1 | -18.7% | – | 0.58 µM [rising, single point] |
| CCCCOc1ccc(C(=O)NCC(=O)NCC2CCCO2)cc1 (stereo not drawn) | 21.8% | – | 0.517 µM [rising, partial curve] |
| O=C(Nc1ccc(N2CCOCC2)cc1)C1CCCN(S(=O)(=O)c2ccccc2)C1 (stereo not drawn) | -13.5% | 0.651 µM [falling, full curve, poor fit] | – |
| Cc1nc(NC(C)C)c2oc3ccccc3c2n1 | – | – | 18.4 µM [falling, partial curve, poor fit] |
| Cc1c(NC(=O)C(C)OC(=O)/C=C/c2ccco2)c(=O)n(-c2ccccc2)n1C (stereo not drawn) | -51.4% | 9.2 µM [falling, full curve, poor fit] | 0.0517 µM [falling, full curve] |
| C[C@H](NC(=O)c1[nH]cnc1C(=O)Nc1ccccc1)c1ccccc1 | -59.8% | 9.2 µM [falling, single point] | 10.3 µM [falling, single point] |
| CC12CCC(=O)N1C(C(=O)Nc1ccc(Cl)c(S(=O)(=O)N3CCCCC3)c1)CS2 (stereo not drawn) | 22.9% | – | 20.6 µM [rising, single point] |
| O=C(NC(=S)N1CCN(C2CCCCC2)CC1)c1ccccc1 | 52.5% | 29.1 µM [rising, single point] | – |
| O=C(N/N=C/c1ccc(O)c(O)c1)c1cccc(S(=O)(=O)N2CCCC2)c1 | 129% | 18.4 µM [rising, single point] | 0.517 µM [rising, full curve, poor fit] |
| Cc1ccc2nc(-c3ccc(Br)cc3)cn2c1 | -6.08% | – | – |
| COc1cc(/C=C2\SC(N)=NC2=O)ccc1OCC(=O)Nc1ccccc1C | -24.1% | – | 5.17 µM [rising, single point] |
| CCOC(=O)c1ccc(-c2ccc(/C=C(\C#N)C(=O)NCc3cccs3)o2)cc1 | 6.48% | – | 0.146 µM [falling, single point] |
| CCCCCN(C(=O)CCC(=O)OCc1ccc(C(C)C)cc1)c1c(N)n(CCCC)c(=O)[nH]c1=O | 150% | 29.1 µM [rising, single point] | – |

Record cards, as listed above.
O=C(N/N=C/c1ccc(O)c(O)c1)c1cccc(S(=O)(=O)N2CCCC2)c1 reads cell number change: 129%; AC50 [1]: 18.4 µM [rising, single point]; AC50 [2]: 0.517 µM [rising, full curve, poor fit]
O=C(Nc1ccc2nc(N3CCOCC3)sc2c1)c1ccccc1 reads cell number change: -3.25%; AC50 [1]: 1.03 µM [falling, full curve, poor fit]; AC50 [2]: 0.92 µM [falling, full curve]
Cc1nc(NC(C)C)c2oc3ccccc3c2n1 reads AC50 [2]: 18.4 µM [falling, partial curve, poor fit]
COC(=O)CNC(=O)CCC(=O)N1CCN(C(c2ccccc2)c2ccccc2)CC1 reads cell number change: -18.7%; AC50 [2]: 0.58 µM [rising, single point]
